Measurements as given in PubChem BioAssay AID624297 (National Center for Advancing Translational Sciences (NCATS), 2012).
Hit rate of the full screen: of about 340,000 compounds, about 6,200 (1.8%) were called active. Inconclusive means that the source gave no clear call. Such entries were picked first, then a sample of the others. The call rests on the fitted dose curve; in most records, active means well fitted activation curve with a large enough effect; inconclusive means small, poorly fitted or top-dose-only effect; inactive means no such curve, though single readings can be large or run the other way. Potencies beside an inconclusive call are fits to weak or partial responses and may not hold up.

Assay: A quantitative high throughput screen for small molecules that induce DNA re-replication in SW480 colon adenocarcinoma cells. Further: nearly all actives have a fitted effect of over 55% in size. On re-replication activation: % of control where 0% means no effect.
Settings: Hoechst DNA content imaging, 48 h; re-replication activation: at 46.1 µM (top of the series) unless noted
In short: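 DNA re-replication was detected as more nuclei of elevated Hoechst intensity after 48 hr exposure to compound (23 nL pinned per well of 250 cells).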
Potency means the concentration at half of the fitted maximal effect.

Question: Which Potency does the source give for `CCOC(=O)CNC(=O)c1ccc(Cl)s1` here?
Answer: The Potency was inconclusive: 0.259 µM [activator, single point].

Question: Which Potency does the source give for `COC(=O)C1=C(C(=O)OC)C(C(=O)OC)C(C(=O)OC)C(C(=O)OC)(C(=O)OC)C(C(=O)OC)=C1C(=O)OC` (stereo unspecified) here?
Answer: The Potency was inconclusive: 29.1 µM [activator, single point].

Question: Which Potency does the source give for `CC(Sc1nnnn1C)C(=O)Nc1ccccc1` (stereo unspecified) here?
Answer: Its Potency is inconclusive: 29.1 µM [activator, partial curve, poor fit].

Question: For `Cc1cc(/C=N/NC(=O)c2cccs2)c(C)n1-c1cnccn1`, which “re-replication activation” value is on record?
Answer: The value was inactive: 3.46%.

Question: With `Cc1ccccc1NC(=O)N(O)C1(C#N)CCCCC1` as the compound, how does the “re-replication activation” value read?
Answer: Its value is inactive: -1.61%.

Question: Which “re-replication activation” value does the source give for `O=c1c2c3c(sc2nc2n1CCCCC2)CCC3` here?
Answer: The value was inactive: 11.9%.

Question: For `COc1ccc(N2C(=O)NC3CC2(C)Oc2ccc(Cl)cc23)cc1OC` (stereo unspecified), which Potency is on record?
Answer: The Potency was inconclusive: 16.4 µM [activator, single point].

Question: With `C=CCn1c(SCC(=O)Nc2cc(C)on2)nc2sc3c(c2c1=O)CCCC3` as the compound, how does the re-replication activation read?
Answer: The re-replication activation was inactive: -1.81% [at 9.22 µM].

Question: For `CCCCCC(=O)Nc1cccc(-c2nc3ncccc3o2)c1`, which “re-replication activation” value is on record?
Answer: The value was inactive: 27.4%.

Question: For `COc1ccccc1-n1c(C)c(C(C)=O)c2cc(O)ccc21`, which Potency is on record?
Answer: The Potency was inconclusive: 4.61 µM [activator, single point].

Question: Which Potency does the source give for `COc1ccc2c(c1)[C@H]1[C@H](CO2)[C@H](c2ccccc2)[C@]2(C)C(=O)N(Cc3ccc(C)cc3)CC(=O)N12` here?
Answer: The Potency was inconclusive: 18.4 µM [activator, partial curve, poor fit].

Question: Which Potency does the source give for `CC(C)Oc1ccc(C(=O)Nc2ccc(Cl)c(S(=O)(=O)Nc3ccc(Cl)cc3)c2)cc1` here?
Answer: The Potency was inconclusive: 16.4 µM [activator, partial curve, poor fit].

Question: For `CC1CCC(C(C)C)C(OC(=O)Cn2c(-c3ccc(F)cc3)[n+](C)c3ccccc32)C1` (stereo unspecified), which Potency is on record?
Answer: Its Potency is active: 16.4 µM.

Question: For `Cc1ccc(NS(=O)(=O)c2ccc(C)c(NC(=S)NCCN3CCOCC3)c2)c(C)c1`, which re-replication activation is on record?
Answer: The re-replication activation was inconclusive: 96.3% [activator].

Question: Which “re-replication activation” value does the source give for `COc1ccc(-n2cc(-c3ccc(C)cc3)[n+]3c2SCC3)cc1` here?
Answer: The value was inactive: -6.48%.

Question: With `COc1cccc(CN(C)CC(=O)Nc2sc3c(c2C#N)CCC3)c1OC` as the compound, how does the “re-replication activation” value read?
Answer: The value was inactive: -38.4%.

Question: With `Cc1cccc(CS(=O)(=O)c2ncc(Cl)c(C(=O)NCc3ccccc3)n2)c1` as the compound, how does the Potency read?
Answer: Its Potency is inconclusive: 2.91 µM [activator, full curve, poor fit].

Question: For `CN1CC=C2C(C#N)=C(N)C(C#N)(C#N)[C@H](c3ccoc3)[C@H]2C1`, which “re-replication activation” value is on record?
Answer: The value was inactive: -4.97%.

Question: For `CC(C)CCCCCCCCCCCCC(=O)NCC(=O)NC1C(O)C(O)C(Nc2ncnc3nc[nH]c23)OC1C(O)CO` (stereo unspecified), which Potency is on record?
Answer: The Potency was inconclusive: 0.0052 µM [activator, full curve, poor fit].

Question: For `COc1ccc(CCNC(=O)c2ccc([N+](=O)[O-])cc2Cl)cc1OC`, which “re-replication activation” value is on record?
Answer: The value was inactive: -4.31%.

Question: Which Potency does the source give for `CC1Sc2ccc(S(=O)(=O)N3CCC(C(=O)NCCc4ccccc4)CC3)cc2NC1=O` (stereo unspecified) here?
Answer: The Potency was inconclusive: 4.11 µM [activator, single point].

Question: For `COc1cc(OC)c(CN2CCC(CO)(CCOc3ccccc3)CC2)c(OC)c1`, which Potency is on record?
Answer: Its Potency is inconclusive: 18.4 µM [activator, single point].

Question: Which Potency does the source give for `OC(COc1ccc(Br)cc1)CN1CCC(Cc2ccccc2)CC1` (stereo unspecified) here?
Answer: Its Potency is inconclusive: 20.6 µM [activator, partial curve, poor fit].

Question: Which Potency does the source give for `CC1(C)COCN1S(=O)(=O)c1ccc(C(=O)Nc2nnc(-c3ccc(Cl)s3)o2)cc1` here?
Answer: Its Potency is inconclusive: 1.12 µM [activator, full curve].

Question: For `COc1cc(OC)c(C=NNC(=S)NC23CC4CC(CC(C4)C2)C3)c(OC)c1`, which Potency is on record?
Answer: The Potency was inconclusive: 10.3 µM [activator, partial curve].

Question: For `CC1CCN(C(=O)CC(NC(=O)c2ccccc2Cl)c2ccccc2)CC1` (stereo unspecified), which Potency is on record?
Answer: The Potency was inconclusive: 20.6 µM [activator, single point].

Question: Which Potency does the source give for `Cc1ccc(-c2nnc(Nc3ccc(C(=O)N(C)C)cc3)c3ccccc23)cc1S(=O)(=O)NC(C)(C)CO` here?
Answer: Its Potency is inconclusive: 0.291 µM [activator, partial curve, poor fit].

Question: For `COC(=O)c1c(C)nc(C)c(C(=O)OC)c1-c1ccc(OC)cc1`, which Potency is on record?
Answer: The Potency was inconclusive: 29.1 µM [activator, single point].

Question: For `CC(C)N=C(NS(=O)(=O)c1ccccc1)C(Cl)(Cl)Cl`, which Potency is on record?
Answer: The Potency was active: 5.8 µM.

Question: With `CCOC(=O)[C@H]1[C@H]2COc3ccc(C)cc3[C@@H]2N2C(=O)CN(CC3CCCO3)C(=O)[C@@]12C` (stereo partly specified) as the compound, how does the “re-replication activation” value read?
Answer: Its value is inactive: -10.9%.

Question: With `O=C(CSc1nc2ccccc2[nH]1)NC1CCCc2ccccc21` (stereo unspecified) as the compound, how does the “re-replication activation” value read?
Answer: Its value is inactive: -0.166%.

Question: With `NC(N)=Nc1ccc(C=C2C=Cc3ccccc32)cc1` as the compound, how does the Potency read?
Answer: Its Potency is inconclusive: 23.1 µM [activator, single point].

Question: With `Cc1c(CCOC(=O)C23CC4CC(CC(C)(C4)C2)C3)sc[n+]1Cc1ccccc1` as the compound, how does the Potency read?
Answer: Its Potency is inconclusive: 29.1 µM [activator, single point].

Question: For `CN(C)/C=C/c1onc(-c2ccccc2Cl)c1C#N`, which “re-replication activation” value is on record?
Answer: Its value is inactive: 1.48%.

Question: With `COc1ccccc1C(=O)Nc1ccccc1C(=O)Nc1ccccc1` as the compound, how does the Potency read?
Answer: The Potency was inconclusive: 2.06 µM [activator, partial curve, poor fit].

Question: With `C=CCNC(=O)C(=O)Nc1ccc2c(c1)N(S(=O)(=O)c1cccs1)CCC2` as the compound, how does the Potency read?
Answer: Its Potency is inconclusive: 23.1 µM [activator, single point].

Question: For `CCCCn1c(CN(C)Cc2ccccc2)nc2c1c(=O)n(C)c(=O)n2C`, which “re-replication activation” value is on record?
Answer: Its value is inactive: -10.2%.

Question: With `CCOc1ccccc1C(=O)NN1C(=O)CCC1=O` as the compound, how does the Potency read?
Answer: Its Potency is inconclusive: 0.58 µM [activator, full curve, poor fit].

Question: Which Potency does the source give for `Cc1ccc(-c2csc(N(CC3CCCO3)C(=O)c3ccco3)n2)cc1` (stereo unspecified) here?
Answer: The Potency was inconclusive: 23.1 µM [activator, single point].

Question: With `O=C(C(=O)N1CCOCC1)c1cn(CC(=O)N2CCc3ccccc3C2)c2ccccc12` as the compound, how does the Potency read?
Answer: Its Potency is inconclusive: 0.651 µM [activator, single point].

Question: Which Potency does the source give for `O=C(Nc1nc2c(s1)CCCC2)c1ccc(Br)s1` here?
Answer: The Potency was inconclusive: 29.1 µM [activator, single point].

Question: Which Potency does the source give for `COc1ccc(N2CCN(C(CNC(C)=O)c3ccc4c(c3)OCO4)CC2)cc1` (stereo unspecified) here?
Answer: Its Potency is inconclusive: 10.3 µM [activator, partial curve].

Question: With `O=C(OCCOc1ccccc1F)c1cccc(S(=O)(=O)N2CCOCC2)c1` as the compound, how does the Potency read?
Answer: Its Potency is inconclusive: 0.184 µM [activator, full curve, poor fit].

Question: With `CN(C)c1ccc(/C=N/NC(=O)c2ccc(NC(=O)c3ccccc3)cc2)cc1` as the compound, how does the Potency read?
Answer: The Potency was inconclusive: 23.1 µM [activator, single point].

Question: For `NNC(=O)c1oc2nc(-c3ccccc3)cc(-c3ccco3)c2c1N`, which Potency is on record?
Answer: Its Potency is inconclusive: 13 µM [activator, partial curve, poor fit].

Question: With `O=C(Nc1ccc(CN2CCCCC2)cc1)c1sc2ccccc2c1Cl` as the compound, how does the Potency read?
Answer: The Potency was inconclusive: 0.651 µM [activator, partial curve, poor fit].

Question: With `Cn1c(SCc2ccc(C(C)(C)C)cc2)nnc1C1COc2ccccc2O1` (stereo unspecified) as the compound, how does the Potency read?
Answer: The Potency was inconclusive: 29.1 µM [activator, single point].

Question: Which Potency does the source give for `CC(=O)c1ccc(NC(=O)Nc2cccc3ccccc23)cc1` here?
Answer: Its Potency is inconclusive: 18.4 µM [activator, single point].

Question: For `CN(C)S(=O)(=O)c1cccc(NC(=O)c2cc(-c3cccs3)nc3ccccc23)c1`, which Potency is on record?
Answer: Its Potency is inconclusive: 32.6 µM [activator, single point].

Question: For `COC(=O)/C(=C1/Oc2cc(C)oc(=O)c2S1)C(F)(F)F`, which Potency is on record?
Answer: The Potency was active: 11.6 µM.

Question: With `O=C(COc1ccc(-c2ccccc2)cc1)N1CCN(S(=O)(=O)Cc2ccccc2)CC1` as the compound, how does the Potency read?
Answer: Its Potency is inconclusive: 18.4 µM [activator, single point].

Question: For `O=C(NC(=S)Nc1ccc(S(=O)(=O)Nc2nccs2)cc1)c1ccc(Br)o1`, which “re-replication activation” value is on record?
Answer: Its value is inactive: 4.2%.

Question: For `CC(=O)NC1CC2CCCC(C1)N2C(=O)Nc1ccccc1` (stereo unspecified), which “re-replication activation” value is on record?
Answer: The value was inactive: -0.431%.

Question: With `CCCC[C@@H](CN[C@H](C)CNC)NCC1CCC(C(C)(C)C)CC1` (stereo partly specified) as the compound, how does the re-replication activation read?
Answer: The re-replication activation was inactive: -8.18% [at 9.22 µM].

Question: With `C=C1SC(=Nc2ccccc2Cl)N(C(=O)c2sc3ccccc3c2Cl)C1(C)C` as the compound, how does the Potency read?
Answer: The Potency was inconclusive: 16.4 µM [activator, single point].

Question: With `O=C(NN1C(=O)C2C(C1=O)C1C=CC2C12CC2)c1ccccc1Cl` (stereo unspecified) as the compound, how does the “re-replication activation” value read?
Answer: The value was inactive: -0.766%.

Question: With `Cc1ccc(CNC(=O)Cn2nnc(C(=O)Nc3cccc(C)c3C)c2N)cc1` as the compound, how does the “re-replication activation” value read?
Answer: The value was inactive: -0.35%.

Question: For `CSc1nnc2n(-c3ccccc3)c(=O)c3c4c(sc3n12)CCC4`, which Potency is on record?
Answer: The Potency was inconclusive: 13 µM [activator, partial curve, poor fit].

Question: With `C=CCNC(=O)NC(=O)COC(=O)CC(NC(N)=O)c1ccc(Cl)cc1` (stereo unspecified) as the compound, how does the Potency read?
Answer: The Potency was inconclusive: 6.51 µM [activator, single point].

Question: With `Cc1ccc(-c2nnc(NC(=O)c3ccco3)o2)c(C)c1` as the compound, how does the Potency read?
Answer: Its Potency is inconclusive: 23.1 µM [activator, single point].

Question: With `CC(C)n1c(SCC(=O)Nc2nc3ccccc3s2)nc2c1c(=O)n(C)c(=O)n2C` as the compound, how does the Potency read?
Answer: Its Potency is inconclusive: 32.6 µM [activator, partial curve, poor fit].

Question: Which “re-replication activation” value does the source give for `CCCCCCCNC(=O)C1(CC2CC(c3ccc(Cl)cc3)=NO2)CCNCC1` (stereo unspecified) here?
Answer: Its value is inactive: 21.8%.

Question: Which Potency does the source give for `COC(=O)c1cc(C(=O)N2CCN(c3cccc(C)c3C)CC2)cc([N+](=O)[O-])c1` here?
Answer: Its Potency is active: 4.11 µM.

Question: With `CC(Nc1ccc(Br)cc1)C(=O)N/N=C/c1ccccc1OCc1ccccc1` (stereo unspecified) as the compound, how does the Potency read?
Answer: The Potency was inconclusive: 16.4 µM [activator, partial curve, poor fit].

Question: With `COc1ccc(C(CNC(=O)CCOc2ccccc2)N(C)C)cc1` (stereo unspecified) as the compound, how does the Potency read?
Answer: Its Potency is inconclusive: 25.9 µM [activator, partial curve, poor fit].

Question: With `Nc1ccc2nn(-c3ccc(Cl)cc3)nc2c1` as the compound, how does the Potency read?
Answer: The Potency was inconclusive: 1.84 µM [activator, partial curve, poor fit].
